Record: PubChem BioAssay AID1259308 (NCATS, 2017)

Assay: 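Knock-downs that increase output of a recombinant reporter protein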 (primary screen)
System: human HEK293 embryonic kidney cells stably expressing firefly luciferase (HEK-CMV-Luc2-Hygro)
Reagents: single siRNA against human genes, 0.8 pmol siRNA per well
Duration: 72 h
Detection: 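Luciferase light (ONE-Glo) measured on one replicate plate set and viability (CellTiter-Glo) on the other, scaled to a negative control siRNA, with robust z-scores and luciferase per cell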
Scale: total luciferase, z-score and total luciferase, % of control: higher = more reporter protein produced; luciferase per cell, z-score: higher = more reporter output per viable cell; viable cells, % of control: higher = more viable cells
Call rule: 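Active when the median/MAD z-score for overall luciferase is greater than 3; a gene was taken forward for validation with new siRNAs if at least two of its three siRNAs passed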
Calls: active = raised luciferase; inactive = no rise
Here is a random part of about 59,000 reagents. Over the whole deposit, about 1,510 (2.6%) are marked active. 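Calls use total luciferase alone and ignore viability, so some active siRNAs may act by altering cell number.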 Unmarked entries are inactive. Reagents against one gene are numbered here.

The opening 4 records, ahead of the listing:
target gene | reagent no. | total luciferase, z-score | total luciferase, % of control | luciferase per cell, z-score | viable cells, % of control
TRAT1 (GeneID 50852) | 1 | -0.452 | 72.9 | -0.438 | 91.4
TRAT1 (GeneID 50852) | 2 | 3.53 (active) | 152 | 2.8 | 81.2
TRAT1 (GeneID 50852) | 3 | -0.786 | 66.3 | -1.17 | 101
RPL13AP6 (GeneID 644511) | 1 | -2.58 | 30.6 | -2.73 | 70

The list itself, from the start:
target gene | reagent no. | total luciferase, z-score | total luciferase, % of control | luciferase per cell, z-score | viable cells, % of control
TRAT1 (GeneID 50852) | 1 | -0.452 | 72.9 | -0.438 | 91.4
TRAT1 (GeneID 50852) | 2 | 3.53 (active) | 152 | 2.8 | 81.2
TRAT1 (GeneID 50852) | 3 | -0.786 | 66.3 | -1.17 | 101
RPL13AP6 (GeneID 644511) | 1 | -2.58 | 30.6 | -2.73 | 70
RPL13AP6 (GeneID 644511) | 2 | 1.97 | 121 | 1.47 | 91.9
RPL13AP6 (GeneID 644511) | 3 | -0.067 | 80.6 | 2.11 | 51.6
TBC1D9B (GeneID 23061) | 1 | -0.369 | 74.5 | -0.665 | 99.3
TBC1D9B (GeneID 23061) | 2 | -0.103 | 79.8 | 0.374 | 80.8
TBC1D9B (GeneID 23061) | 3 | 0.351 | 88.9 | -0.151 | 103
RNPEPL1 (GeneID 57140) | 1 | -0.518 | 71.6 | -0.991 | 104
RNPEPL1 (GeneID 57140) | 2 | 0.477 | 91.4 | 0.968 | 79.1
RNPEPL1 (GeneID 57140) | 3 | 1.19 | 106 | 0.98 | 91.1
STAT5A (GeneID 6776) | 1 | -1.04 | 61.1 | -1.13 | 91.9
STAT5A (GeneID 6776) | 2 | -1.93 | 43.6 | -2.28 | 88.8
STAT5A (GeneID 6776) | 3 | 1.25 | 107 | 0.0304 | 118
FAF1 (GeneID 11124) | 1 | -0.0659 | 80.6 | 0.268 | 83.9
FAF1 (GeneID 11124) | 2 | -1.1 | 60 | -1.55 | 101
FAF1 (GeneID 11124) | 3 | 1.29 | 107 | 1.08 | 90.4
ADAM18 (GeneID 8749) | 1 | -1.08 | 60.5 | 0.0154 | 67.3
ADAM18 (GeneID 8749) | 2 | 0.335 | 88.5 | 0.371 | 89.7
ADAM18 (GeneID 8749) | 3 | -0.611 | 69.7 | -0.337 | 85.2
SAXO2 (GeneID 283726) | 1 | 0.699 | 95.8 | 0.172 | 102
SAXO2 (GeneID 283726) | 2 | 1 | 102 | 3.55 | 44.7
SAXO2 (GeneID 283726) | 3 | -0.193 | 78 | -0.662 | 104
KNL1 (GeneID 57082) | 1 | 0.782 | 97.4 | 2.13 | 62.1
KNL1 (GeneID 57082) | 2 | -0.283 | 76.2 | 0.16 | 81.7
KNL1 (GeneID 57082) | 3 | 0.466 | 91.2 | 1.28 | 72.8
WDFY1 (GeneID 57590) | 1 | 0.34 | 88.7 | 0.241 | 93
WDFY1 (GeneID 57590) | 2 | -0.382 | 74.3 | -0.224 | 88.1
WDFY1 (GeneID 57590) | 3 | -2.58 | 30.6 | -2.87 | 72.7
KLKB1 (GeneID 3818) | 1 | -0.624 | 69.5 | -0.0463 | 78.6
KLKB1 (GeneID 3818) | 2 | -0.0618 | 80.7 | 0.704 | 74.9
KLKB1 (GeneID 3818) | 3 | 0.023 | 82.3 | 0.253 | 86.1
DAZAP1 (GeneID 26528) | 1 | 0.0707 | 83.3 | -0.699 | 112
DAZAP1 (GeneID 26528) | 2 | 0.376 | 89.4 | 0.394 | 90
DAZAP1 (GeneID 26528) | 3 | -0.976 | 62.5 | 0.233 | 65.7
KLK13 (GeneID 26085) | 1 | -0.434 | 73.3 | -0.812 | 101
KLK13 (GeneID 26085) | 2 | -0.156 | 78.8 | -0.478 | 99.8
KLK13 (GeneID 26085) | 3 | -0.46 | 72.7 | -1.02 | 106
BTBD2 (GeneID 55643) | 1 | -0.855 | 64.9 | -1.45 | 106
BTBD2 (GeneID 55643) | 2 | -0.264 | 76.6 | -0.282 | 92.2
BTBD2 (GeneID 55643) | 3 | 0.0149 | 82.2 | -0.499 | 105
MYL12BP2 (GeneID 391722) | 1 | -0.126 | 79.4 | 0.0517 | 87.5
MYL12BP2 (GeneID 391722) | 2 | -0.814 | 65.7 | -0.804 | 90.7
MYL12BP2 (GeneID 391722) | 3 | 0.346 | 88.8 | -0.0234 | 99.8
DLEU1 (GeneID 10301) | 1 | -0.464 | 72.6 | 0.315 | 74.7
DLEU1 (GeneID 10301) | 2 | -0.0155 | 81.6 | 0.235 | 85.7
DLEU1 (GeneID 10301) | 3 | -0.156 | 78.8 | -0.441 | 98.9
LIN28A (GeneID 79727) | 1 | 0.906 | 99.9 | 1.15 | 82.5
LIN28A (GeneID 79727) | 2 | 0.21 | 86.1 | 0.402 | 86.5
LIN28A (GeneID 79727) | 3 | 0.502 | 91.9 | 0.306 | 94.7
KIAA1191 (GeneID 57179) | 1 | 1.97 | 121 | 1.07 | 102
KIAA1191 (GeneID 57179) | 2 | -2.1 | 40.2 | -1.77 | 71.5
KIAA1191 (GeneID 57179) | 3 | -0.798 | 66 | -0.956 | 94.9
ZNF835 (GeneID 90485) | 1 | -0.613 | 69.7 | -1.05 | 103
ZNF835 (GeneID 90485) | 2 | -0.233 | 77.2 | -0.142 | 89.6
ZNF835 (GeneID 90485) | 3 | 2.12 | 124 | 2.45 | 72.8
